# Values from PubChem BioAssay AID1224828 (NIAID, 2016)
# Assay: 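Find genes required for NF-kappaB p65 moving into the nucleus after LPS in mouse macrophages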 (primary screen)
# Cells: mouse RAW264.7 G9 macrophage reporter cells (GFP-p65, Tnf promoter-mCherry)
# Reagent: siRNA pool against mouse genes, 100 nM
# Time to read-out: 2 days siRNA transfection, then 40 min LPS before fixation
# Conditions: LPS (Salmonella minnesota R595) at 10 ng/ml
# Detection: 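Microscopy ratio of nuclear to perinuclear-ring GFP-p65 signal, scaled to the plate median; gene score is the average of two replicate robust z-scores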
# Scale: p65 translocation robust z-score: higher = more nuclear NF-kappaB p65 after LPS than the plate median; nuclear/cytoplasmic p65 ratio: higher = more nuclear NF-kappaB p65
# Call rule: 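Active if robust z is above 3.3 (negative regulators) or below -1.56, the Tlr4 control median (positive regulators); activity score 50 or more; control wells not called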
# Calls: active = hit (p65 shift raised or lowered); inactive = no clear change
# This is an unselected part of about 17,000 deposited reagents. Over the whole deposit, 762 (4.5%) are marked active. 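Active calls include both raised and lowered p65 entry, mostly lowered; wells with fewer than 50 cells lack a z-score.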 The raw values are shown without normalisation. Entries without a mark were called inactive. Reagents against one gene are numbered here.
gene symbol,reagent no.,p65 translocation robust z-score,"nuclear/cytoplasmic p65 ratio, rep 1","nuclear/cytoplasmic p65 ratio, rep 2",low cell count flag
Wdr33 (WD repeat domain 33),1,-1.15,1.34,1.33,enough cells to score
"Gimap6 (GTPase, IMAP family member 6)",1,,1.44,1.48,fewer than 50 cells per well; well left out of scoring
Tns4 (tensin 4),1,,1.35,1.43,fewer than 50 cells per well; well left out of scoring
"Bcl6b (B cell CLL/lymphoma 6, member B)",1,-0.01,1.64,1.59,enough cells to score
"Atp6v0d2 (ATPase, H+ transporting, lysosomal V0 subunit D2)",1,-0.82,1.38,1.5,enough cells to score
Prp15 (retired record),1,1.04,1.52,1.33,enough cells to score
Zfp764 (zinc finger protein 764),1,-1.41,1.26,1.33,enough cells to score
Or5bh3 (olfactory receptor family 5 subfamily BH member 3),1,1.74,1.85,1.67,enough cells to score
Dera (deoxyribose-phosphate aldolase),1,-0.37,1.35,1.56,enough cells to score
Slx1b (structure-specific endonuclease subunit SLX1B),1,0.35,1.45,1.4,enough cells to score
Pdlim2 (PDZ and LIM domain 2),1,,1.15,1.01,fewer than 50 cells per well; well left out of scoring
Or51ai2 (olfactory receptor family 51 subfamily AI member 2),1,,1.62,1.32,fewer than 50 cells per well; well left out of scoring
Zfp13 (zinc finger protein 13),1,-0.44,1.33,1.22,enough cells to score
Mtap (methylthioadenosine phosphorylase),1,0.41,1.47,1.42,enough cells to score
Nrn1 (neuritin 1),1,-0.09,1.8,1.44,enough cells to score
Mrps21 (mitochondrial ribosomal protein S21),1,-1.27,1.64,1.35,enough cells to score
Mstn (myostatin),1,-1.36,1.22,1.22,enough cells to score
Tet2 (tet methylcytosine dioxygenase 2),1,1.01,1.54,1.55,enough cells to score
"St6gal1 (beta galactoside alpha 2,6 sialyltransferase 1)",1,-0.98,1.33,1.5,enough cells to score
Atp5f1b (ATP synthase F1 subunit beta),1,0.72,1.68,1.64,enough cells to score
Anxa6 (annexin A6),1,0.36,1.69,1.66,enough cells to score
Lingo1 (leucine rich repeat and Ig domain containing 1),1,0.26,1.72,1.62,enough cells to score
Tax1bp1 (Tax1 (human T cell leukemia virus type I) binding protein 1),1,-1.37,1.41,1.25,enough cells to score
Ppia (peptidylprolyl isomerase A),1,-1.4,1.17,1.08,enough cells to score
Or10a3m (olfactory receptor family 10 subfamily A member 3M),1,0.8,1.55,1.36,enough cells to score
C1qtnf7 (C1q and tumor necrosis factor related protein 7),1,1.63,1.62,1.78,enough cells to score
Vwa7 (von Willebrand factor A domain containing 7),1,0.14,1.6,1.56,enough cells to score
Stmn2 (stathmin-like 2),1,-0.62,1.51,1.42,enough cells to score
Plppr1 (phospholipid phosphatase related 1),1,0.87,1.58,1.47,enough cells to score
"Gng10 (guanine nucleotide binding protein (G protein), gamma 10)",1,1.09,1.78,1.72,enough cells to score
Mea1 (male enhanced antigen 1),1,-1,1.54,1.42,enough cells to score

Not a retest: entries from further up.
gene symbol,reagent no.,p65 translocation robust z-score,"nuclear/cytoplasmic p65 ratio, rep 1","nuclear/cytoplasmic p65 ratio, rep 2",low cell count flag
Or51ai2 (olfactory receptor family 51 subfamily AI member 2),1,,1.62,1.32,fewer than 50 cells per well; well left out of scoring
Zfp13 (zinc finger protein 13),1,-0.44,1.33,1.22,enough cells to score
Mtap (methylthioadenosine phosphorylase),1,0.41,1.47,1.42,enough cells to score
Nrn1 (neuritin 1),1,-0.09,1.8,1.44,enough cells to score
Mrps21 (mitochondrial ribosomal protein S21),1,-1.27,1.64,1.35,enough cells to score
Mstn (myostatin),1,-1.36,1.22,1.22,enough cells to score
Tet2 (tet methylcytosine dioxygenase 2),1,1.01,1.54,1.55,enough cells to score
"St6gal1 (beta galactoside alpha 2,6 sialyltransferase 1)",1,-0.98,1.33,1.5,enough cells to score
Atp5f1b (ATP synthase F1 subunit beta),1,0.72,1.68,1.64,enough cells to score

Additional entries:
gene symbol,reagent no.,p65 translocation robust z-score,"nuclear/cytoplasmic p65 ratio, rep 1","nuclear/cytoplasmic p65 ratio, rep 2",low cell count flag
Hax1 (HCLS1 associated X-1),1,,1.26,1.23,fewer than 50 cells per well; well left out of scoring
Wnt16 (WNT family member 16),1,1.06,1.46,1.37,enough cells to score
Mrps26 (mitochondrial ribosomal protein S26),1,0.44,1.7,1.72,enough cells to score
Egfl7 (EGF-like domain 7),1,-2.02 (active),1.17,1.13,enough cells to score
Or9r7 (olfactory receptor family 9 subfamily R member 7),1,0.13,1.46,1.33,enough cells to score
"Rictor (RPTOR independent companion of MTOR, complex 2)",1,,1.21,1.09,fewer than 50 cells per well; well left out of scoring
4632434I11RIK,1,0.54,1.35,1.28,enough cells to score
Rps3a1 (ribosomal protein S3A1),1,,1.38,1.2,fewer than 50 cells per well; well left out of scoring
Nln (neurolysin (metallopeptidase M3 family)),1,-0.75,1.39,1.28,enough cells to score
Tm4sf1 (transmembrane 4 superfamily member 1),1,-0.48,1.42,1.48,enough cells to score
Pgls (6-phosphogluconolactonase),1,-1.31,1.16,1.09,enough cells to score
Ift81 (intraflagellar transport 81),1,1.44,1.63,2.21,enough cells to score
"Mustn1 (musculoskeletal, embryonic nuclear protein 1)",1,0.16,1.77,1.65,enough cells to score
Larp4b (La ribonucleoprotein 4B),1,-0.22,1.46,1.32,enough cells to score
Zfat (zinc finger and AT hook domain containing),1,0.12,1.46,1.23,enough cells to score
Zfp106 (zinc finger protein 106),1,-0.6,1.36,1.16,enough cells to score
Gabra2 (gamma-aminobutyric acid type A receptor subunit alpha 2),1,-0.55,1.33,1.33,enough cells to score
Ninl (ninein-like),1,-0.23,1.42,1.28,enough cells to score
Il1rapl2 (interleukin 1 receptor accessory protein-like 2),1,0.08,1.46,1.42,enough cells to score
Cep164 (centrosomal protein 164),1,-0.72,1.41,1.72,enough cells to score
Cep164 (centrosomal protein 164),2,-0.14,1.51,1.81,enough cells to score
Wdr72 (WD repeat domain 72),1,-0.99,1.43,1.4,enough cells to score
Tcf20 (transcription factor 20),1,-0.37,1.41,1.52,enough cells to score
Vmn1r18 (vomeronasal 1 receptor 18),1,1.54,1.67,1.34,enough cells to score
"Gucy1b1 (guanylate cyclase 1, soluble, beta 1)",1,0.89,1.59,1.45,enough cells to score
Stambp (STAM binding protein),1,0.61,1.5,1.27,enough cells to score
"Naip6 (NLR family, apoptosis inhibitory protein 6)",1,0.97,1.71,1.8,enough cells to score
"Fam120b (family with sequence similarity 120, member B)",1,,1.45,1.06,fewer than 50 cells per well; well left out of scoring
